Values from PubChem BioAssay AID1259308 (NCATS, 2017)

- Assay: 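Knock-downs that increase output of a recombinant reporter protein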 (primary screen)
- Cells: human HEK293 embryonic kidney cells stably expressing firefly luciferase (HEK-CMV-Luc2-Hygro)
- Reagent: single siRNA against human genes, 0.8 pmol siRNA per well
- Time to read-out: 72 h
- Read-out: 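Reporter luminescence and viable-cell signal on separate replicate plates, given as percent of non-targeting control and median/MAD z-scores, plus per-cell luciferase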
- Reading the numbers: total luciferase, z-score: higher = more reporter protein produced
- Hit rule: 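Active when the median/MAD z-score for overall luciferase is greater than 3; a gene was taken forward for validation with new siRNAs if at least two of its three siRNAs passed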
- Meaning of the calls: active = raised luciferase; inactive = no rise
This is one part, drawn at random, of about 59,000 reagents tested. About 1,510 of all reagents (2.6%) were called active. 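Calls use total luciferase alone and ignore viability, so some active siRNAs may act by altering cell number.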 Entries without a mark were called inactive. Further read-outs or replicates are left out here.

What is on record for USO1 (USO1 vesicle transport factor) [SID160720434]?
total luciferase, z-score: 0.276

For USO1 (USO1 vesicle transport factor) [SID160720435], how do the results read?
total luciferase, z-score: -1.17

For USO1 (USO1 vesicle transport factor) [SID160720436], what was measured?
total luciferase, z-score: 0.229

Which result is listed for LONRF3 (LON peptidase N-terminal domain and ring finger 3) [SID160749560]?
total luciferase, z-score: 1.46

What is on record for LONRF3 (LON peptidase N-terminal domain and ring finger 3) [SID160749561]?
total luciferase, z-score: -1.17

How did the screen score LONRF3 (LON peptidase N-terminal domain and ring finger 3) [SID160749562]?
total luciferase, z-score: -0.073

Reformatted: entries from further up
gene knocked down | PubChem SID | total luciferase, z-score
USO1 (USO1 vesicle transport factor) | SID160720434 | 0.276
USO1 (USO1 vesicle transport factor) | SID160720435 | -1.17

Continued:
With FCHSD1 (FCH and double SH3 domains 1) [SID160735158], how do the results read?
total luciferase, z-score: 0.49

For FCHSD1 (FCH and double SH3 domains 1) [SID160753455], how do the results read?
total luciferase, z-score: 0.752

With FCHSD1 (FCH and double SH3 domains 1) [SID160753456], how do the results read?
total luciferase, z-score: -0.364

What is on record for LOC644277 [SID160769168]?
total luciferase, z-score: -2.76

For LOC644277 [SID160769169], what does the deposit list?
total luciferase, z-score: -0.241

What did the screen give for LOC644277 [SID160769170]?
total luciferase, z-score: 0.604
